Results taken from article PMC10605378.
No constants are given. Whether binding was seen depends on the method and setting. In cells and extracts the contact can be indirect. Some binding calls cover weakened binding; strength is not graded here.

Sequences of proteins named here, by UniProt entry; tags and fusion partners are left off.
UniProt P06537: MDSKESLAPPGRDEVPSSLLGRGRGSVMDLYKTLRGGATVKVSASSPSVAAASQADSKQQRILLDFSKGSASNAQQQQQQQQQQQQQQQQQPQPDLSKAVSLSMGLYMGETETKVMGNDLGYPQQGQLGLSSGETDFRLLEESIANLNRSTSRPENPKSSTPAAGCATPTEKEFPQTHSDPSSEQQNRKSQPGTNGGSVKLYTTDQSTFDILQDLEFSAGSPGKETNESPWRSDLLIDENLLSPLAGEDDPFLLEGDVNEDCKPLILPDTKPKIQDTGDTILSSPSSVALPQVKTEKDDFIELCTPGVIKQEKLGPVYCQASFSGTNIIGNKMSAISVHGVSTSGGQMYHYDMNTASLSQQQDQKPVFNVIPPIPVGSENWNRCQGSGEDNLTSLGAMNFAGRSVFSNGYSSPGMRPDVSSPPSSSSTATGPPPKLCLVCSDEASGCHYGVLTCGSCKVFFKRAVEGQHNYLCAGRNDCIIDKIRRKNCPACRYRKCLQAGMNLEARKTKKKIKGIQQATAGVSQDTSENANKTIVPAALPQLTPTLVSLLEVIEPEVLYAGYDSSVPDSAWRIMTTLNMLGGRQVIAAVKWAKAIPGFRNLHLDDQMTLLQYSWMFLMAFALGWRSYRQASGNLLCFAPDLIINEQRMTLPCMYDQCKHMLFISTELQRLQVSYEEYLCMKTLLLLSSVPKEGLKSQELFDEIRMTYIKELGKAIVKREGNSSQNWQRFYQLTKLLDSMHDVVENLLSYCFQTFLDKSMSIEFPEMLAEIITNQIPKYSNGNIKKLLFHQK

Columns and labels:
[1] = target: glucocorticoid receptor (not stated (endogenous in osteoblasts; mouse MC3T3 and human hFOB1.19 lines were cultured)) (UniProt P06537); assay: co-IP; osteoblasts treated with dexamethasone for 24 h; co-immunoprecipitation followed by immunoblotting with antibodies to aurora A or the glucocorticoid receptor
[2] = target: glucocorticoid receptor (not stated (endogenous in osteoblasts; mouse MC3T3 and human hFOB1.19 lines were cultured)) (UniProt P06537); assay: condition: only cells treated with VX680 (with dexamethasone); co-IP; osteoblasts treated with dexamethasone in combination with the aurora kinase inhibitor VX680 for 24 h; co-immunoprecipitation followed by immunoblotting with antibodies to aurora A or the glucocorticoid receptor

- binding [1]: binds
- binding [2]: no binding
B1: aurora kinase A (enzyme, UniProt P97477 1-395)
chain: MDRCKENCVSRPVKTTVPFGPKRVLVTEQIPSQNLGSASSGQAQRVLCPSNSQRVPSQAQKLGAGQKPAPKQLPAASVPRPVSRLNNPQKNEQPAASGNDSEKEQASLQKTEDTKKRQWTLEDFDIGRPLGKGKFGNVYLARERQSKFILALKVLFKTQLEKANVEHQLRREVEIQSHLRHPNILRLYGYFHDATRVYLILEYAPLGTVYRELQKLSKFDEQRTATYITELANALSYCHSKRVIHRDIKPENLLLGSNGELKIADFGWSVHAPSSRRTTMCGTLDYLPPEMIEGRMHDEKVDLWSLGVLCYEFLVGMPPFEAHTYQETYRRISRVEFTFPDFVTEGARDLISRLLKHNASQRLTLAEVLEHPWIKANSSKPPTGHTSKEPTSKSS
